Taken from: PubChem BioAssay AID493246 (Drosophila RNAi Screening Center, 2011)
The screen tested about 21,000 reagents; this is an unselected part of those that have a named target and a result. Over the whole deposit, 429 (2%) are marked active. 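Values are raw and not normalised between plates; calls rest on per-plate z-scores that were not deposited.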 Not stated in the record: the amount of reagent, the time to read-out.

- Purpose: 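Genome-wide search for dsRNAs that reduce cell number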 (primary screen)
- Cells: Drosophila Kc and S2R+ cells
- Knock-down reagent: long dsRNA against Drosophila genes
- Detection: 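Raw, unnormalised count of remaining cells in each well; per-plate z-scores of cell number underlie the calls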
- Direction: Kc cell number and S2R+ cell number: higher = more cells remaining
- Hit rule: 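Counted as a hit if cell number falls by a z-score of at least 3 within its plate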

Mef2 (Myocyte enhancer factor 2) [DRSC07468] → Kc cell number, rep 1: 1.44e6; Kc cell number, rep 2: 1.46e6; S2R+ cell number, rep 1: 1.02e6; S2R+ cell number, rep 2: 1.11e6; activity call: inactive
rept (reptin) [DRSC11388] → Kc cell number, rep 1: 1.50e6; Kc cell number, rep 2: 1.55e6; S2R+ cell number, rep 1: 1.21e6; S2R+ cell number, rep 2: 1.36e6; activity call: inactive
CG10019 [DRSC00279] → Kc cell number, rep 1: 1.53e6; Kc cell number, rep 2: 1.46e6; S2R+ cell number, rep 1: 1.03e6; S2R+ cell number, rep 2: 1.19e6; activity call: inactive
Trm1 (tRNA methyltransferase 1) [DRSC02951] → Kc cell number, rep 1: 1.29e6; Kc cell number, rep 2: 1.34e6; S2R+ cell number, rep 1: 1.16e6; S2R+ cell number, rep 2: 1.20e6; activity call: inactive
CG5348 [DRSC06933] → Kc cell number, rep 1: 1.59e6; Kc cell number, rep 2: 1.59e6; S2R+ cell number, rep 1: 1.22e6; S2R+ cell number, rep 2: 1.39e6; activity call: inactive
fzo (fuzzy onions) [DRSC16954] → Kc cell number, rep 1: 1.44e6; Kc cell number, rep 2: 1.43e6; S2R+ cell number, rep 1: 1.01e6; S2R+ cell number, rep 2: 1.08e6; activity call: inactive
Mov10 (Mov10 RISC complex RNA helicase) [DRSC07012] → Kc cell number, rep 1: 1.41e6; Kc cell number, rep 2: 1.57e6; S2R+ cell number, rep 1: 1.23e6; S2R+ cell number, rep 2: 1.28e6; activity call: inactive

Quoted from the listing (2 entries):
Mef2 (Myocyte enhancer factor 2) [DRSC07468] → Kc cell number, rep 1: 1.44e6; Kc cell number, rep 2: 1.46e6; S2R+ cell number, rep 1: 1.02e6; S2R+ cell number, rep 2: 1.11e6; activity call: inactive
rept (reptin) [DRSC11388] → Kc cell number, rep 1: 1.50e6; Kc cell number, rep 2: 1.55e6; S2R+ cell number, rep 1: 1.21e6; S2R+ cell number, rep 2: 1.36e6; activity call: inactive

The listing continues.
CG31740 [DRSC01619] → Kc cell number, rep 1: 1.47e6; Kc cell number, rep 2: 1.56e6; S2R+ cell number, rep 1: 9.82e5; S2R+ cell number, rep 2: 1.22e6; activity call: inactive
CG12517 [DRSC02173] → Kc cell number, rep 1: 1.58e6; Kc cell number, rep 2: 1.61e6; S2R+ cell number, rep 1: 1.11e6; S2R+ cell number, rep 2: 1.21e6; activity call: inactive
garz (gartenzwerg) [DRSC07193] → Kc cell number, rep 1: 1.56e6; Kc cell number, rep 2: 1.48e6; S2R+ cell number, rep 1: 1.12e6; S2R+ cell number, rep 2: 1.21e6; activity call: inactive
CG30105 [DRSC05668] → Kc cell number, rep 1: 5.98e5; S2R+ cell number, rep 1: 8.41e5; activity call: inactive
CG6729 [DRSC02984] → Kc cell number, rep 1: 1.59e6; Kc cell number, rep 2: 1.56e6; S2R+ cell number, rep 1: 1.14e6; S2R+ cell number, rep 2: 1.16e6; activity call: inactive
